PubChem BioAssay AID1259308 – NCATS, 2017
Assay: 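Genes whose loss raises luciferase production in HEK293 cells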 (primary screen). Cells: human HEK293 embryonic kidney cells stably expressing firefly luciferase (HEK-CMV-Luc2-Hygro). Knock-down reagent: single siRNA against human genes, 0.8 pmol siRNA per well. Time to read-out: 72 h. Detection: 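Reporter luminescence and viable-cell signal on separate replicate plates, given as percent of non-targeting control and median/MAD z-scores, plus per-cell luciferase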. Reading the numbers: total luciferase, z-score: higher = more reporter protein produced. Rule for the call: 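An siRNA counts as active if its total luciferase robust z-score exceeds 3; genes with two or more such siRNAs out of three were retested with fresh siRNAs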. Meaning of the calls: active = raised luciferase; inactive = no rise.
In all, the deposit lists about 59,000 reagents; this is a random part of them. About 1,510 of all reagents (2.6%) count as active. 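Calls use total luciferase alone and ignore viability, so some active siRNAs may act by altering cell number.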 Reagents against one gene are numbered here. Not all columns of the deposit are shown.

Against CDR2 (GeneID 1039) #1, the values are total luciferase, z-score 2.36; inactive.
Silencing of CDR2 (GeneID 1039) #2 resulted in: total luciferase, z-score -1.26; inactive.
Silencing of CDR2 (GeneID 1039) #3 gave: total luciferase, z-score 0.168; inactive.
TMSB15A (GeneID 11013) #1 scored total luciferase, z-score -0.514; inactive.
With knock-down of TMSB15A (GeneID 11013) #2 the results were total luciferase, z-score -0.499; inactive.
Silencing of TMSB15A (GeneID 11013) #3 gave: total luciferase, z-score -0.208; inactive.
For BMS1P21 (GeneID 100288974) #1 the deposit lists total luciferase, z-score -1.81; inactive.
Against BMS1P21 (GeneID 100288974) #2, the entry reads total luciferase, z-score -0.465; inactive.
Against BMS1P21 (GeneID 100288974) #3, the entry reads total luciferase, z-score 0.615; inactive.

Reformatted: entries from further up.
gene,reagent no.,"total luciferase, z-score",call
CDR2 (GeneID 1039),1,2.36,inactive
CDR2 (GeneID 1039),2,-1.26,inactive
CDR2 (GeneID 1039),3,0.168,inactive

Continued:
TAB1 (GeneID 10454) #1 gave total luciferase, z-score -0.106; inactive.
Against TAB1 (GeneID 10454) #2, the values are total luciferase, z-score 0.5; inactive.
Knock-down of TAB1 (GeneID 10454) #3 came out at: total luciferase, z-score -1.26; inactive.
After knock-down of OR1E2 (GeneID 8388) #1 the results were total luciferase, z-score 0.169; inactive.
OR1E2 (GeneID 8388) #2 showed total luciferase, z-score -1.26; inactive.
Silencing of OR1E2 (GeneID 8388) #3 came out at: total luciferase, z-score 0.326; inactive.
Knock-down of OR1A1 (GeneID 8383) #1 resulted in: total luciferase, z-score 1.15; inactive.
OR1A1 (GeneID 8383) #2 scored total luciferase, z-score 0.435; inactive.
Silencing of OR1A1 (GeneID 8383) #3 resulted in: total luciferase, z-score 0.112; inactive.
With knock-down of CRTC2 (GeneID 200186) #1 the results were total luciferase, z-score 1.72; inactive.
CRTC2 (GeneID 200186) #2 showed total luciferase, z-score -1.29; inactive.
For CRTC2 (GeneID 200186) #3, the values are total luciferase, z-score 0.624; inactive.
